{
  "source": "paper PMC9551036",
  "about": "“A selective and orally bioavailable VHL-recruiting PROTAC achieves SMARCA2 degradation in vivo” (Nature Communications, 2022)",
  "key": {"[1]": {"system": "NCI-H1568 tumour xenograft", "experiment": "NCI-H1568 xenograft tumour growth", "type": "in vivo, mouse", "conditions": "qd, individual animals", "method": "(§1) To establish subcutaneous tumours, mice were injected with 5 × 10^6 NCI-H1568 in PBS with 5% FCS or with 1 × 10^7 A549 cells in PBS with 5% FCS. Tumour diameters were measured with a caliper three times a week. The volume of each tumour (in mm^3) was calculated according to the formula [tumour volume = length × diameter^2 × π/6]. To monitor side effects of treatment, mice were inspected daily for abnormalities and body weight was determined daily after the start of treatment. Animals were sacrificed when the tumours reached a size of 1500 mm^3. Mice were randomised into treatment groups when the average tumour size reached ~210–220 mm^3. Group sizes were calculated individually for each tumour model based on tumour growth during model establishment experiments. A power analysis was performed using a sample size calculator (https://www.stat.ubc.ca/~rollin/stats/ssize/n2.html). For both models used in the study, 10 mice per group were used for each experiment. All administrations were dosed with 10 ml/kg (s.c. and oral). Control mice were dosed subcutaneously with 10% HP-β-CD in 50% Ringer solution and orally with 15% HP-β-CD, that means the control mouse treatment was corresponding to the solvent of the compounds. Compound 6 was dosed subcutaneously either in a d1-4 q3d, d6-8 q2d, d11-13 q2d treatment (Treatment 1) or a q3 or 4d treatment (Treatment 2).\nFor the evaluation of the statistical significance of tumour growth inhibition, a one-tailed nonparametric Mann-Whitney-Wilcoxon U-test was performed, based on the hypothesis that an effect would only be measurable in one direction (i.e. expectation of tumour inhibition but not tumour stimulation). Analysis was performed on the day indicated for each experiment. The p values obtained from the U-test were adjusted using the Bonferroni-Holm correction. By convention, p values ≤0.05 indicate significance of differences."}, "[2]": {"experiment": "Body weight / tolerability in xenograft studies", "type": "in vivo, mouse", "design": "unit not given here", "conditions": "day 1, individual animals", "method": "as §1"}},
  "note": "“And” between values parts separate entries of the source, which are not always exact repeats. Equal values may be shown once. The source gives many values for each of these; only a part stands here.",
  "data": [
    {"compound": "Cc1ncsc1-c1ccc([C@H](CCCCCN2CCC(c3ccc4c(c3)n(C3CCCC3)c3nc(=O)c5c(Br)cccc5n43)CC2)NC(=O)[C@@H]2C[C@@H](O)CN2C(=O)[C@@H](NC(=O)C2(F)CC2)C(C)(C)C)cc1", "note": "[compound 11]", "values": [
      {"measurement": "Tumor volume", "setting": "[1]; 30 mg/kg, Day 1", "value": "139.28 mm3 and 152.44 mm3 and 180.41 mm3 and 185.88 mm3 and 193.64 mm3 and 219.59 mm3 and 239.17 mm3 and 261.38 mm3 and 285.6 mm3 and 301.85 mm3"},
      {"measurement": "Tumor volume", "setting": "[1]; 30 mg/kg, Day 3", "value": "185.56 mm3 and 165.72 mm3 and 178.07 mm3 and 269.15 mm3 and 291.38 mm3 and 273.25 mm3 and 339.58 mm3 and 304.31 mm3 and 333.67 mm3 and 309.18 mm3"},
      {"measurement": "Tumor volume", "setting": "[1]; 30 mg/kg, Day 6", "value": "273.51 mm3 and 237.33 mm3 and 277.37 mm3 and 296.26 mm3 and 295.01 mm3 and 286.7 mm3 and 437.24 mm3 and 396.86 mm3 and 385.41 mm3 and 432.24 mm3"},
      {"measurement": "Tumor volume", "setting": "[1]; 30 mg/kg, Day 20", "value": "618.85 mm3 and 198.88 mm3 and 487.36 mm3 and 434.9 mm3 and 444.66 mm3 and 510.94 mm3 and 332.08 mm3 and 388.77 mm3 and 571.38 mm3 and 983.58 mm3"},
      {"measurement": "Tumor volume", "setting": "[1]; 30 mg/kg, Day 22", "value": "629.82 mm3 and 287.1 mm3 and 377.04 mm3 and 263.4 mm3 and 572.47 mm3 and 632.48 mm3 and 259.69 mm3 and 470.9 mm3 and 607.91 mm3 and 1113.72 mm3"},
      {"measurement": "Tumor volume", "setting": "[1]; 30 mg/kg, Day 24", "value": "684.25 mm3 and 295.7 mm3 and 433.86 mm3 and 275.59 mm3 and 590.01 mm3 and 693.78 mm3 and 226.99 mm3 and 450.83 mm3 and 640.38 mm3 and 1127.5 mm3"},
      {"measurement": "Tumor volume", "setting": "[1]; 30 mg/kg, Day 27", "value": "760.15 mm3 and 200.57 mm3 and 455.07 mm3 and 346 mm3 and 467.88 mm3 and 536.85 mm3 and 176.34 mm3 and 388.18 mm3 and 645.23 mm3 and 1092.16 mm3"},
      {"measurement": "Tumor volume", "setting": "[1]; 30 mg/kg, Day 29", "value": "749.45 mm3 and 181.18 mm3 and 540.35 mm3 and 349.46 mm3 and 448.47 mm3 and 736.69 mm3 and 124.97 mm3 and 449.91 mm3 and 634.32 mm3 and 1166.56 mm3"},
      {"measurement": "Tumor volume", "setting": "[1]; 30 mg/kg, Day 31", "value": "855.39 mm3 and 231.29 mm3 and 406.22 mm3 and 382.72 mm3 and 500.97 mm3 and 698.51 mm3 and 118.6 mm3 and 458.88 mm3 and 689.45 mm3 and 1386.54 mm3"},
      {"measurement": "Tumor volume", "setting": "[1]; 100 mg/kg, Day 1", "value": "143.1 mm3 and 159.11 mm3 and 171.16 mm3 and 180.02 mm3 and 195.38 mm3 and 210.69 mm3 and 246.42 mm3 and 263.29 mm3 and 285.44 mm3 and 305.66 mm3"},
      {"measurement": "Tumor volume", "setting": "[1]; 100 mg/kg, Day 3", "value": "140.99 mm3 and 211.14 mm3 and 152.07 mm3 and 226.44 mm3 and 291.48 mm3 and 280.56 mm3 and 256.22 mm3 and 319.94 mm3 and 325.86 mm3 and 340.95 mm3"},
      {"measurement": "Tumor volume", "setting": "[1]; 100 mg/kg, Day 6", "value": "152.72 mm3 and 310.74 mm3 and 187.73 mm3 and 244.7 mm3 and 313.93 mm3 and 310.86 mm3 and 326.33 mm3 and 337.02 mm3 and 314.4 mm3 and 415.72 mm3"},
      {"measurement": "Tumor volume", "setting": "[1]; 100 mg/kg, Day 20", "value": "559.64 mm3 and 478.07 mm3 and 271.78 mm3 and 457.14 mm3 and 512.59 mm3 and 521.48 mm3"},
      {"measurement": "Tumor volume", "setting": "[1]; 100 mg/kg, Day 22", "value": "211.58 mm3 and 464.63 mm3 and 251.99 mm3 and 546.24 mm3 and 573.39 mm3 and 315.51 mm3 and 456.23 mm3 and 578.76 mm3 and 657.58 mm3"},
      {"measurement": "Tumor volume", "setting": "[1]; 100 mg/kg, Day 24", "value": "223.29 mm3 and 462.18 mm3 and 255.31 mm3 and 564.5 mm3 and 593.13 mm3 and 321.21 mm3 and 496.06 mm3 and 593.37 mm3 and 684.77 mm3"},
      {"measurement": "Tumor volume", "setting": "[1]; 100 mg/kg, Day 27", "value": "190.56 mm3 and 507.71 mm3 and 279.45 mm3 and 652.34 mm3 and 681.29 mm3 and 282.22 mm3 and 471.43 mm3 and 607.17 mm3 and 726.27 mm3"},
      {"measurement": "Tumor volume", "setting": "[1]; 100 mg/kg, Day 29", "value": "204.82 mm3 and 451.57 mm3 and 233.83 mm3 and 634.63 mm3 and 670.46 mm3 and 340.89 mm3 and 462.95 mm3 and 632.41 mm3 and 762.83 mm3"},
      {"measurement": "Tumor volume", "setting": "[1]; 100 mg/kg, Day 31", "value": "194.67 mm3 and 510.49 mm3 and 248.22 mm3 and 597.24 mm3 and 633.9 mm3 and 374.45 mm3 and 474.51 mm3 and 507.58 mm3 and 793.64 mm3"},
      {"measurement": "Body weight change", "setting": "[2]; 30 mg/kg qd", "value": 0},
      {"measurement": "Body weight change", "setting": "[2]; 100 mg/kg qd", "value": 0}
    ]}
  ]
}
